Results are given in words; binding and its absence hold for the method and conditions named. In cells and extracts the contact can be indirect. A yes stands for co-enrichment or nearness to the bait. Other partners may have been found.

Sequences of proteins named here, by UniProt entry; tags and fusion partners are left off.
UniProt O88286: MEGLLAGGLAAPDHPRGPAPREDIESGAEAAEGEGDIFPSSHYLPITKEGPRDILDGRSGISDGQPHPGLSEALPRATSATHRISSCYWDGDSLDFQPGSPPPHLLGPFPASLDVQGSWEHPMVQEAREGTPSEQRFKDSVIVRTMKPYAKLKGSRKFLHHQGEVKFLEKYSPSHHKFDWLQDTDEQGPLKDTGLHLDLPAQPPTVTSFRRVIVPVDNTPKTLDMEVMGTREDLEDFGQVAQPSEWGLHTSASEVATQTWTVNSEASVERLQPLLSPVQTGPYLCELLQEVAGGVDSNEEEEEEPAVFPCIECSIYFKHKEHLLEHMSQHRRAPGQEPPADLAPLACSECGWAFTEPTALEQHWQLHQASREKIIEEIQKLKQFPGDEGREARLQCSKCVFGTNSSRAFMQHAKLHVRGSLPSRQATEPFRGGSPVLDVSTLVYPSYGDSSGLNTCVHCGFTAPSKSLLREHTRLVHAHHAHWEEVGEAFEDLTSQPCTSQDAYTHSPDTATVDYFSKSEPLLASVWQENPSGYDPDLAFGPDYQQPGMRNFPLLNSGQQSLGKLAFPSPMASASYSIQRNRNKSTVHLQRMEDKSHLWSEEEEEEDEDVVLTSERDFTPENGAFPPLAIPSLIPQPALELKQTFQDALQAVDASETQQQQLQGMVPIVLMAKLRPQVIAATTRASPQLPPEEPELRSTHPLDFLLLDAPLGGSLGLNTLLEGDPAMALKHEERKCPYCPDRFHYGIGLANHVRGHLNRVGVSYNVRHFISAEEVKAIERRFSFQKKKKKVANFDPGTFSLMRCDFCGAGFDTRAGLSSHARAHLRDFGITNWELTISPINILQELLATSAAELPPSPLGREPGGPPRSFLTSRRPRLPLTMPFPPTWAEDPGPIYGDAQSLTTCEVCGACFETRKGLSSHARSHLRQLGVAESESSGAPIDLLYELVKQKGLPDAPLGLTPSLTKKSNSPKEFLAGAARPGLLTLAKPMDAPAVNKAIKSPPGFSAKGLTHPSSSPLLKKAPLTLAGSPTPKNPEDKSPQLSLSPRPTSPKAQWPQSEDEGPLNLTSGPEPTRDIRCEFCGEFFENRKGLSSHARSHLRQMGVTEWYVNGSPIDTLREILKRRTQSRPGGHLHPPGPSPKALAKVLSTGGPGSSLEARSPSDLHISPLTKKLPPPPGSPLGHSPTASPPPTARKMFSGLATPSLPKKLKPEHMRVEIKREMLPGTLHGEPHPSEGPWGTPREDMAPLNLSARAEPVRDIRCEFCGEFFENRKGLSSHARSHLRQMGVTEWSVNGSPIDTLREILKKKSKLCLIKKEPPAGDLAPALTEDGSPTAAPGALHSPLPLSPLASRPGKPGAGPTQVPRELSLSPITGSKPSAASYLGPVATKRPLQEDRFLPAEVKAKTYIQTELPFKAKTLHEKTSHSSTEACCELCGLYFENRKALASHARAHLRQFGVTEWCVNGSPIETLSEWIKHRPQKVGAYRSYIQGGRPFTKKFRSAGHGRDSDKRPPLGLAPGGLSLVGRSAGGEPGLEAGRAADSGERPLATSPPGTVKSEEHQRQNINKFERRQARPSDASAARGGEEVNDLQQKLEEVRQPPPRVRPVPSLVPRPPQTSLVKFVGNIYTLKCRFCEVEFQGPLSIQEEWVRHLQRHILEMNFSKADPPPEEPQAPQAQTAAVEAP
UniProt Q9Z148: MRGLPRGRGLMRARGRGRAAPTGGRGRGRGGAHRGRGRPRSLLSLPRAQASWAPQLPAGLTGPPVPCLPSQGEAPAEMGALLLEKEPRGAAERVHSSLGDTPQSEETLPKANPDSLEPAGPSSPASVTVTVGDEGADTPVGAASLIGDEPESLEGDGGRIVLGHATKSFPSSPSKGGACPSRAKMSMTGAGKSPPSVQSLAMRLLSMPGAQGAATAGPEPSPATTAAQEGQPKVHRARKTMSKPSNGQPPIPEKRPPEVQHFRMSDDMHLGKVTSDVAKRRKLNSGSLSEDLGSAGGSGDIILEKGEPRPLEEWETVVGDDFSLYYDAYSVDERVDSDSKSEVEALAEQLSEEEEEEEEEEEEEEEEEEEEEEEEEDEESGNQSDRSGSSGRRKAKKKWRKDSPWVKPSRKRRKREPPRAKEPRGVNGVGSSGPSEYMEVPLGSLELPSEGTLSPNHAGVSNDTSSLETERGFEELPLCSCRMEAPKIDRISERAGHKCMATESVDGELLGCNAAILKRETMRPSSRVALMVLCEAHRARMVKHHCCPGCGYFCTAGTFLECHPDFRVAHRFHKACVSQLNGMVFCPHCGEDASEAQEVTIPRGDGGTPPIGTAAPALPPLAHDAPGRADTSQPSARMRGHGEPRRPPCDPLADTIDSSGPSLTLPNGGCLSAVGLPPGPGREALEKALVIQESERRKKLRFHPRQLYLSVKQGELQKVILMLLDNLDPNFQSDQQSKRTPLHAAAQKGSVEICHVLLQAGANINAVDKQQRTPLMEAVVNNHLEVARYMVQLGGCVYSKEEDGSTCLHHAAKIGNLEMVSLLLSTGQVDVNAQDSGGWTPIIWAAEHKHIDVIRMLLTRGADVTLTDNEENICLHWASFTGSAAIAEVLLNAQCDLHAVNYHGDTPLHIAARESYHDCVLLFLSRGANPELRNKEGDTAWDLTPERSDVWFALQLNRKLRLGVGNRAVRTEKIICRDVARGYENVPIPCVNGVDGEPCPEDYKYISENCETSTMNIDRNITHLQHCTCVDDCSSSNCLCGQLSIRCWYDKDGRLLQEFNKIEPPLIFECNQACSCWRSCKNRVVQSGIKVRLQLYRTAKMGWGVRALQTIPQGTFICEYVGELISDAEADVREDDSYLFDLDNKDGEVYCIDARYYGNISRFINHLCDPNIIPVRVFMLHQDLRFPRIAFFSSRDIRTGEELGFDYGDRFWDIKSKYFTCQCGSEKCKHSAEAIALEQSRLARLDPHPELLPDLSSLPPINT

We go through one substance from PMC4977153.

In the assay the target is Widely interspaced zinc finger motifs, Wiz (mouse (endogenous in E13.5 brain and adult cerebellum)) (UniProt O88286). Kind of assay: affinity purification with mass spectrometry; 500 ug nuclear lysate of pooled E13.5 mouse brain (n = 1 pooled sample) or adult cerebellum (n = 2) incubated with 2 ug anti-Wiz antibody (NBP180586) or anti-IgG control overnight at 4 degrees Celsius; Protein G Dynabeads; eluted proteins analysed by mass spectrometry.

On to EHMT2 (from UniProt Q9Z148 1-1263), for which the binding result is “binds”.
